Assay results published in paper PMC3239850.
No constants are given. Whether binding was seen depends on the method and setting. A result given as binding can be weak or reduced; the word gives no strength.

How the values were obtained:
Assay in all cases: two-hybrid; direct interaction assays, ProQuest system (Invitrogen); Brachypodium NF-YC orthologs as Gal4 DBD fusions, Arabidopsis proteins as Gal4 AD fusions; X-Gal assay on nitrocellulose membranes
[1] = biological target: Bradi1g32200 (Brachypodium NF-YC ortholog) (Brachypodium distachyon)
[2] = biological target: Bradi1g67980 (Brachypodium NF-YC ortholog) (Brachypodium distachyon)
[3] = biological target: Bradi3g05270 (Brachypodium NF-YC ortholog) (Brachypodium distachyon)

Measured: binding

B1: NUCLEAR FACTOR Y subunit B3 (protein, UniProt O23310 1-161)
chain: MADSDNDSGGHKDGGNASTREQDRFLPIANVSRIMKKALPANAKISKDAKETVQECVSEFISFITGEASDKCQREKRKTINGDDLLWAMTTLGFEDYVEPLKVYLQKYREVEGEKTTTAGRQGDKEGGGGGGGAGSGSGGAPMYGGGMVTTMGHQFSHHFS
binds: all assays above

B2: NUCLEAR FACTOR Y subunit B2 (protein, UniProt Q9FGJ3 1-190)
chain: MGDSDRDSGGGQNGNNQNGQSSLSPREQDRFLPIANVSRIMKKALPANAKISKDAKETMQECVSEFISFVTGEASDKCQKEKRKTINGDDLLWAMTTLGFEDYVEPLKVYLQRFREIEGERTGLGRPQTGGEVGEHQRDAVGDGGGFYGGGGGMQYHQHHQFLHQQNHMYGATGGGSDSGGGAASGRTRT
binds: all assays above
